Some of these results come from one statement about several compounds together.
Tests used:
[1] = test system: Monographella nivalis (Microdochium nivale); assay: Monographella nivalis (Microdochium nivale) / liquid culture (foot rot cereals); assay type: cell-based; conditions: 200 ppm; liquid culture (PDB), inhibition of growth photometrically 4-5 days after application
Pyrenophora teres = Pyrenophora teres / barley / leaf disc preventative (net blotch); assay type: in vivo; conditions: 200 ppm, barley leaf disc cv. Hasso, inoculated 2 days after application, assessed 5-7 days after application
Alternaria solani = Alternaria solani / tomato / leaf disc (early blight); assay type: in vivo; conditions: 200 ppm; tomato leaf disc cv. Baby, inoculated 2 days after application, assessed 5-7 days after application
[2] = test system: Glomerella lagenarium (Colletotrichum lagenarium); assay: Glomerella lagenarium (Colletotrichum lagenarium) / liquid culture (anthracnose); assay type: cell-based; conditions: 20 ppm; liquid culture (PDB), inhibition of growth photometrically 3-4 days after application
[3] = test system: Thanatephorus cucumeris (Rhizoctonia solani); assay: Thanatephorus cucumeris (Rhizoctonia solani) / liquid culture (foot rot, damping-off); assay type: cell-based; conditions: 200 ppm; liquid culture (PDB), inhibition of growth photometrically 3-4 days after application
Sclerotinia sclerotiorum = Sclerotinia sclerotiorum / liquid culture (white mold); assay type: cell-based; conditions: 200 ppm; liquid culture (PDB), inhibition of growth photometrically after 72 hrs at 620 nm

Measured: disease control

OC(Cn1ccnc1)(c1ccc(C#CC2CC2)cc1)C(F)(F)c1ccccn1 (stereo not drawn) [Compound 6]
at least 80%: [1]

N#CC(Cc1cccnc1)c1ccc(C#CC2CC2)cc1F (stereo not drawn) [Compound 10]
not listed: Sclerotinia sclerotiorum
at least 80%: all other assays above

CCCC#Cc1ccc(C(O)(Cn2cncn2)C(F)(F)c2ccc(Cl)cn2)cc1 (stereo not drawn) [Compound 12]
at least 80%: Alternaria solani | [2] | [1] | [3]

OC(Cn1cncn1)(c1ccc(C#CC2CC2)cc1)C(F)(F)c1ccccn1 (stereo not drawn) [Compound 7]
at least 80%: [2] | [1] | [3]

Cc1cncc(CC(C#N)c2ccc(C#CC3CC3)cc2)c1 (stereo not drawn) [Compound 3]
at least 80%: Pyrenophora teres | Alternaria solani

N#CC(Cc1cccnc1)c1ccc(C#CC2CC2)cc1 (stereo not drawn) [Compound 1]
not listed: [1]
at least 80%: all other assays above

OC(Cn1ccnc1)c1ccc(C#CC2CC2)cc1Cl (stereo not drawn) [Compound 5]
at least 80%: Pyrenophora teres | [3]

CC(C)C#Cc1ccc(C(O)(Cn2cncn2)C(F)(F)c2ccc(Cl)cn2)cc1 (stereo not drawn) [Compound 11]
at least 80%: Pyrenophora teres | [2] | [1]

OC(Cn1cncn1)(c1ccc(C#CC2CC2)cc1)C(F)(F)c1ccc(Cl)cn1 (stereo not drawn) [Compound 13]
not listed: Alternaria solani
at least 80%: all other assays above

N#CC(Cc1cncnc1)c1ccc(C#CC2CC2)cc1 (stereo not drawn) [Compound 2]
at least 80%: Pyrenophora teres | Alternaria solani | [3]

— patent US9695123B2, “Microbiocides” (Syngenta Participations AG, priority 2013, dated 2017)
